According to PubChem BioAssay AID504467 (National Center for Advancing Translational Sciences (NCATS), 2011):
The whole screen tested about 330,000 compounds, of which about 7,700 (2.3%) were called active. The inconclusive results got no clear call from the source; some entries with a clear call stand among them for comparison. Calls follow the shape of the dose curve; as a rule, active = well fitted inhibition curve with a large enough effect; inconclusive = small, poorly fitted or top-dose-only effect, or effect the other way; inactive = flat fitted curve, though single readings scatter. Potencies of inconclusive entries are doubtful fits and often do not repeat.

Experiment: qHTS screen for small molecules that inhibit ELG1-dependent DNA repair in human embryonic kidney (HEK293T) cells expressing luciferase-tagged ELG1; also: nearly all actives have a fitted effect of over 55% in size
Details: HEK293T ELG1-luciferase reporter, luminescence, 16 h, DNA damage induced by 5-fluorouridine; activity change, negative = inhibition: at 46.1 µM (top of the series)
How it was run: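 In this reporter screen, reduction of luminescence relative to DMSO vehicle indicated activity. Compounds and 5-fluorouridine were added together to 2,000 cells per well, incubated for 16 hr at 37 °C, then developed with ONE-Glo.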
% is scaled to controls: 0 for no effect and ±100 for the full control effect; potency is read from the fitted curve at half-maximal effect.

Question: Which “activity change, negative = inhibition” value does the source give for `COc1ccc(C(=O)c2cnc3cc4c(cc3c2C)OCO4)cc1` here?
Answer: inactive: -17.4%

Question: Which Potency does the source give for `COc1ccc(C2CC2/C(=N/OC(=O)c2cccs2)c2ccccc2)cc1` (stereo unspecified) here?
Answer: inconclusive: 16.4 µM [activator, partial curve]

Question: For `O=c1c2cnn(-c3ccccc3)c2ncn1CCc1ccccc1`, which Potency is on record?
Answer: inconclusive: 20.6 µM [activator, partial curve]

Question: For `O=C(O)c1ccc2c(c1)C(=O)N(N1C(=O)c3ccccc3C1=O)C2=O`, which “activity change, negative = inhibition” value is on record?
Answer: inactive: 12.4%

Question: Which Potency does the source give for `Cn1c(C(=O)O)c(CC(=O)N2CCC(Cc3ccccc3)CC2)c2ccccc21` here?
Answer: inconclusive: 25.9 µM [activator, partial curve, poor fit]

Question: Which Potency does the source give for `CC1(C)Cc2c(sc3ncnc(NN)c23)CO1` here?
Answer: inconclusive: 23.1 µM [inhibitor, single point]

Question: For `Nc1ccc(C(=O)Nc2ccc(Nc3ccncc3)cc2)cc1`, which “activity change, negative = inhibition” value is on record?
Answer: inactive: 0.657%

Question: With `O=C(CSc1nnc(SCc2ccc(Cl)cc2)s1)N/N=C/c1ccccc1Cl` as the compound, how does the Potency read?
Answer: inconclusive: 16.4 µM [activator, single point]

Question: Which Potency does the source give for `Cc1ccc(-c2nc(N)sc2-c2ccc(C)cc2)cc1` here?
Answer: inconclusive: 23.1 µM [inhibitor, partial curve, poor fit]

Question: Which Potency does the source give for `COc1ccc(-c2cc(C(F)(F)F)nc(SCC(=O)N3CC(C)OC(C)C3)n2)cc1OC` (stereo unspecified) here?
Answer: inconclusive: 4.11 µM [inhibitor, partial curve, poor fit]

Question: For `CNC(=S)N(C)[C@H]1c2c(ccc3ccccc23)OC[C@H]1CO`, which Potency is on record?
Answer: active: 23.1 µM

Question: Which Potency does the source give for `COCC(C)n1c(C)cc(C(=O)COC(=O)CNC(=O)c2ccccc2)c1C` (stereo unspecified) here?
Answer: inconclusive: 14.6 µM [activator, single point]

Question: For `COc1ccc(CN(C)C(=O)CCN(c2ccccc2)S(=O)(=O)c2ccc(C)cc2)c(OC)c1`, which Potency is on record?
Answer: inconclusive: 16.4 µM [inhibitor, single point]

Question: With `COc1cccc(NC(=O)c2nnn(CCc3ccccc3)c2N)c1` as the compound, how does the Potency read?
Answer: inconclusive: 8.2 µM [activator, partial curve]

Question: With `CCCCNC(=O)c1cn(CC)c2ccc(S(=O)(=O)N3CCCC3)cc2c1=O` as the compound, how does the Potency read?
Answer: inconclusive: 18.3 µM [inhibitor, single point]

Question: For `COc1ccc(C(C(=O)NCC2CCCO2)N(C(=O)c2snc(C(N)=O)c2N)c2ccc(C)cc2)cc1OC` (stereo unspecified), which “activity change, negative = inhibition” value is on record?
Answer: inactive: -1.56%

Question: For `COC(=O)c1ccc2[nH]ccc2c1`, which Potency is on record?
Answer: inconclusive: 5.17 µM [activator, single point]

Question: Which “activity change, negative = inhibition” value does the source give for `Cc1ccc2c(c1)c1c(n2CC(O)CN2CCCCC2C)CCCC1` (stereo unspecified) here?
Answer: inactive: -13.4%

Question: For `CCOc1ccc(C(=O)Nc2nnc(S(=O)(=O)N3CCCCC3)s2)cc1`, which Potency is on record?
Answer: inconclusive: 29.1 µM [activator, single point]

Question: With `C=CCn1c(C)cc(C(=O)CSc2n[nH]c(N)n2)c1C` as the compound, how does the Potency read?
Answer: inconclusive: 13 µM [activator, partial curve]

Question: With `CC(C)(C)c1ccc(-c2noc(CCC(=O)NCC3CCCO3)n2)cc1` (stereo unspecified) as the compound, how does the Potency read?
Answer: inconclusive: 2.59 µM [activator, partial curve, poor fit]

Question: For `O=C(CSc1nc2[nH]ncc2c(=O)n1-c1ccccc1)N1CCCc2ccccc21`, which “activity change, negative = inhibition” value is on record?
Answer: inactive: 1.87%

Question: Which “activity change, negative = inhibition” value does the source give for `OCCOCCN1CCN(C(=S)Nc2ccccc2)CC1` here?
Answer: inactive: 0.189%

Question: Which “activity change, negative = inhibition” value does the source give for `CCOC(=O)c1ccc(CN2C(=O)c3ccccc3S2(=O)=O)cc1` here?
Answer: inactive: 4.37%

Question: For `Cc1ccc(/C=C/C(=O)N2CCN(c3ccc(F)cc3)CC2)o1`, which “activity change, negative = inhibition” value is on record?
Answer: inactive: -6.49%

Question: For `COC(=O)c1ccc(NC(=S)Nc2ccccn2)cc1`, which Potency is on record?
Answer: inconclusive: 5.17 µM [activator, partial curve]

Question: For `O=C(Nc1nc(-c2ccccc2)cs1)c1ccc(Br)o1`, which Potency is on record?
Answer: inconclusive: 20.6 µM [activator, single point]

Question: Which Potency does the source give for `CC(=O)n1cc(C(C[N+](=O)[O-])SCCN)c2ccccc21` (stereo unspecified) here?
Answer: inconclusive: 29.1 µM [inhibitor, single point]

Question: Which “activity change, negative = inhibition” value does the source give for `COc1ccc(CCNC(=O)Cn2cc(C(F)(F)F)cc(Cl)c2=O)cc1` here?
Answer: inactive: 0.522%

Question: With `COc1cc(NC(=O)c2cc3cccc(OC)c3o2)cc(C(=O)Nc2cccc(C(F)(F)F)c2)c1` as the compound, how does the Potency read?
Answer: active: 11.6 µM

Question: With `Cc1cc(C)cc(-n2nnnc2SCC(=O)Nc2cccc(NC(=O)c3ccco3)c2)c1` as the compound, how does the Potency read?
Answer: inconclusive: 23.1 µM [inhibitor, single point]

Question: Which Potency does the source give for `Cc1c(Cl)cnc(NC(=O)COC(=O)c2cccs2)c1Cl` here?
Answer: inconclusive: 32.6 µM [activator, partial curve, poor fit]

Question: For `CCOc1ccc2nc(NC(=O)C3CCCN(S(=O)(=O)c4cccs4)C3)sc2c1` (stereo unspecified), which Potency is on record?
Answer: inconclusive: 29.1 µM [inhibitor, single point]

Question: Which “activity change, negative = inhibition” value does the source give for `Clc1ncc(CN2CCN(Cc3ccccc3)CC2)s1` here?
Answer: inactive: -0.683%

Question: For `O=C(O)c1cn(Cc2ccccc2)nc1-c1cccnc1`, which “activity change, negative = inhibition” value is on record?
Answer: inactive: 4.3%

Question: With `CCOc1ccc(NC(=O)CN(C)C(=O)c2ccc(C)o2)cc1OCC` as the compound, how does the “activity change, negative = inhibition” value read?
Answer: inactive: 2.17%

Question: For `COc1ccc(-n2c(O)c(C=NCc3ccccn3)c3ccccc3c2=O)c(OC)c1`, which “activity change, negative = inhibition” value is on record?
Answer: inactive: 14.7%

Question: With `Cc1cc(C)c2[nH]c(=O)c(CN(Cc3ccc4c(c3)OCO4)Cc3nnnn3C3CCCC3)cc2c1` as the compound, how does the Potency read?
Answer: inconclusive: 29.1 µM [inhibitor, single point]

Question: For `COc1cccc(N2CCN(C(=O)c3oc4ccccc4c3NC(=O)CCc3cc(OC)no3)CC2)c1`, which Potency is on record?
Answer: inconclusive: 16.4 µM [inhibitor, partial curve]

Question: Which Potency does the source give for `C=CCn1c(SCC(=O)N2CCc3ccccc3C2)nc2sc(C)cc2c1=O` here?
Answer: inconclusive: 18.4 µM [inhibitor, single point]

Question: Which “activity change, negative = inhibition” value does the source give for `CCCc1ccc(S(=O)(=O)N2CCN(C(C)C(=O)NC3CCCC3)CC2)cc1` (stereo unspecified) here?
Answer: inactive: -3.79%

Question: Which Potency does the source give for `COc1ccc(-c2noc(CSc3nnc(CCc4ccccc4)n3-c3ccccc3)n2)cc1OC` here?
Answer: inconclusive: 29.1 µM [inhibitor, single point]

Question: For `COc1ccc(Cc2noc(CN3CCCN(Cc4ccc(F)cc4)CC3)n2)cc1OC`, which Potency is on record?
Answer: inconclusive: 25.9 µM [inhibitor, partial curve, poor fit]

Question: For `O=C(Cc1ccsc1)Nc1ccc2c(c1)OCO2`, which Potency is on record?
Answer: inconclusive: 20.6 µM [activator, single point]

Question: Which “activity change, negative = inhibition” value does the source give for `O=c1[nH]c(-c2ccc(Cl)cc2)nc(=S)[nH]1` here?
Answer: inactive: 9.52%

Question: With `O=C(N[C@@H]1C/C=C\C[C@@H](CC(=O)N(CCO)Cc2ccccc2)C(=O)NC[C@H](c2ccccc2)OC1=O)OCC1c2ccccc2-c2ccccc21` as the compound, how does the Potency read?
Answer: active: 14.6 µM

Question: For `O=[N+]([O-])c1c(NCCO)cc(N2CCN(Cc3ccc4c(c3)OCO4)CC2)c2nonc12`, which Potency is on record?
Answer: active: 20.6 µM

Question: With `C/C(=N/NC(=O)C1CCCC1)c1ccc(NC(=O)C(F)(F)F)cc1` as the compound, how does the Potency read?
Answer: inconclusive: 10.3 µM [activator, partial curve, poor fit]

Question: With `CSc1cccc(NC(=S)NCCCN2CCN(c3ccc(F)cc3)CC2)c1` as the compound, how does the Potency read?
Answer: inconclusive: 29.1 µM [inhibitor, single point]

Question: With `CCCCN(C)CC(O)Cn1cc(/C=C/C(=O)c2cccs2)c2ccccc21` (stereo unspecified) as the compound, how does the “activity change, negative = inhibition” value read?
Answer: inactive: 17.4%

Question: For `Cc1ccccc1Cn1ccc(NC(=O)c2cc3ncc(Br)cn3n2)n1`, which Potency is on record?
Answer: inconclusive: 20.6 µM [activator, partial curve, poor fit]

Question: For `CSc1ccc(/C=C(\C#N)C(=O)NC2CCCCC2)cc1`, which Potency is on record?
Answer: inconclusive: 32.6 µM [activator, partial curve, poor fit]

Question: Which Potency does the source give for `CSc1nnc(-c2ccccc2Cl)o1` here?
Answer: inconclusive: 18.4 µM [activator, single point]

Question: Which “activity change, negative = inhibition” value does the source give for `O=C(O)c1cccc(Nc2ccncc2[N+](=O)[O-])c1` here?
Answer: inactive: 6.32%

Question: With `Cc1cc(-c2c(C(=O)N3CCOCC3)c(C)nn2-c2ccccc2)no1` as the compound, how does the “activity change, negative = inhibition” value read?
Answer: inactive: -1.26%

Question: Which “activity change, negative = inhibition” value does the source give for `CCCN1CC=C2C(C#N)=C(N)C(C#N)(C#N)C(c3cccc(OC)c3OC)C2C1` (stereo unspecified) here?
Answer: inactive: -20%

Question: Which Potency does the source give for `CCOC(=O)C1=C(COC(=O)/C=C/c2cccc(OC)c2OC)NC(=O)NC1C` (stereo unspecified) here?
Answer: inconclusive: 18.3 µM [inhibitor, single point]

Question: With `COc1ccc(N2CCN(C(=O)CN=C3NS(=O)(=O)C(c4ccc(C)cc4)=C3C)CC2)cc1` as the compound, how does the Potency read?
Answer: inconclusive: 20.6 µM [inhibitor, single point]

Question: Which “activity change, negative = inhibition” value does the source give for `C/C(=N\NS(=O)(=O)c1ccccc1)c1cc(Cl)cc(Cl)c1O` here?
Answer: inactive: -0.542%

Question: Which “activity change, negative = inhibition” value does the source give for `O=C(Nc1ccc(NC(=O)c2ccccc2O)cc1)Nc1ccc(F)cc1F` here?
Answer: inactive: 6.8%

Question: With `O=C(CN1C(=O)S/C(=C\c2ccccn2)C1=O)Nc1ccccc1` as the compound, how does the Potency read?
Answer: inconclusive: 29.1 µM [activator, single point]

Question: With `Nc1ccc(C(=O)OCC(=O)Nc2ccc([N+](=O)[O-])cc2C(F)(F)F)cc1` as the compound, how does the Potency read?
Answer: inconclusive: 29.1 µM [inhibitor, partial curve, poor fit]

Question: Which Potency does the source give for `CCOc1ccc(C(C)=O)cc1CSc1nc(C)cc(C)n1` here?
Answer: inconclusive: 0.58 µM [inhibitor, full curve, poor fit]

Question: With `CCOC(=O)C(=O)Nc1cc([N+](=O)[O-])ccc1C` as the compound, how does the “activity change, negative = inhibition” value read?
Answer: inactive: -1.89%

Question: Which Potency does the source give for `COCCCNC(=O)Nc1ccc2c(c1)N(C)C(=O)CS2` here?
Answer: inconclusive: 18.4 µM [activator, single point]

Question: With `COC(=O)CCC(=O)Oc1ccc(OC(=O)CCC(=O)OC)cc1` as the compound, how does the Potency read?
Answer: inconclusive: 16.4 µM [inhibitor, partial curve, poor fit]

Question: Which Potency does the source give for `COc1ccccc1/C=C/C(=O)NC(=S)N1CCOCC1` here?
Answer: inconclusive: 16.4 µM [activator, single point]

Question: For `Clc1ccc(-c2ccc(CNCC3CCCO3)o2)cc1` (stereo unspecified), which “activity change, negative = inhibition” value is on record?
Answer: inactive: 4.47%

Question: With `CC1=C(C(=O)OC2CCCC2)C(c2ccc(C)o2)C2=C(CC(c3cccs3)CC2=O)N1` (stereo unspecified) as the compound, how does the “activity change, negative = inhibition” value read?
Answer: inactive: -20.4%

Question: For `O=C(N/C(=C\c1ccccc1)C(=O)N1CCCCCC1)c1ccccc1`, which Potency is on record?
Answer: inconclusive: 23.1 µM [inhibitor, partial curve, poor fit]

Question: With `Cc1ccc(C(=O)Nc2ccccc2N2CCCC2)cc1S(=O)(=O)N1CCOCC1` as the compound, how does the Potency read?
Answer: inconclusive: 29.1 µM [inhibitor, single point]
